In patent US20200140501A1 (published 2020):
Results are given in words; binding and its absence hold for the method and conditions named. Some binding calls cover weakened binding; strength is not graded here.

The chains behind the UniProt entries cited, without tags or fusion partners. Residues count along the entry.
UniProt Q15389, residues 20-498: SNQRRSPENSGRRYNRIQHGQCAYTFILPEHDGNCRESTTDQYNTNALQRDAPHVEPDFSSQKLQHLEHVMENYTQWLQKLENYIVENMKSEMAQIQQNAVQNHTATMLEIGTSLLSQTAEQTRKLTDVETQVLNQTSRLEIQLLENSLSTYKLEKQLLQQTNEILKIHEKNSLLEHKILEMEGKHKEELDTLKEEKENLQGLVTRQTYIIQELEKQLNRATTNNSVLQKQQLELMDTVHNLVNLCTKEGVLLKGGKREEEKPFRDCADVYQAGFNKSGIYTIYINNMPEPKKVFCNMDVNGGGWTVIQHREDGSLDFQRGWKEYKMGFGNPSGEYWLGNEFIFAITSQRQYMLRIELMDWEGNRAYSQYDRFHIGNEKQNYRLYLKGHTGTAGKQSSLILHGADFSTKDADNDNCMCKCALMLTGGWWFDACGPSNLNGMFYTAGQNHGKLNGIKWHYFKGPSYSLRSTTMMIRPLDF

Legend:
[1] = biological target: human angiopoietin-1 (Ang-1) (human) (UniProt Q15389); experiment: solution competition ELISA
[2] = biological target: human angiopoietin-1 (Ang-1) (human) (UniProt Q15389); experiment: competition ELISA format (FIG. 2)

Row | binding [1] | binding [2] | Binder
1 | binds | binds | hNGAL lipocalin mutein SEQ ID NO: 7 (designed binder) QDSTSDLIPAPPLSKVPLQQNFQDNQFHGKWYVVGHAGNYILREDKDPEKMWATIYELKEDKSYDVTEVSFGPKKCNYRIWTFVPGSQPGEFTLGGIKSPPGDTSTLVRVVSTNYNQHAMVFFKHVLQNREFFEITLYGRTKELTSELKENFIRFSKSLGLPENHIVFPVPIDQCIDGSAWSHPQFEK
2 | – | binds | hNGAL lipocalin mutein SEQ ID NO: 8 (designed binder) QDSTSDLIPAPPLSKVPLQQNFQDNQFHGKWYVVGQAGNYILREDKDPGKMWATIYELKEDKSYDVTEVSFGAKKCNYRIWTFVPGSQPGEFTLGGIKSDPGGTSTLVRVVSTNYNQHAMVFFKHVLQNREFFEITLYGRTKELTSELKENFIRFSKSLGLPENHIVFPVPIDQCIDGSAWSHPQFEK
